Source: PubChem BioAssay AID2685 (National Center for Advancing Translational Sciences (NCATS), 2010)
Some of the results follow. The main result of the screen is listed elsewhere. These columns were measured beside it and carry no call. The list favours compounds with an active or inconclusive main result. The note in brackets gives the kind of curve behind each potency; many fits are weak.

Experiment: qHTS Assay for Lipid Storage Modulators in Drosophila S3 Cells;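 as to cell number change: cells counted by Cell Tracker Red CMTPX staining in the red channel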
Conditions: BODIPY lipid droplet fluorescence, 18-24 h; for cell number change: measured here: cell count max response, cells fed with added oleic acid
How it was run: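 Drosophila S3 cells got compounds at several concentrations plus oleic acid (400 uM solution). Laser-scanning cytometry with 488 nm excitation read lipid droplets at 500-530 nm and cells at 575-640 nm. Percent activity was relative to 20 uM Triacsin C.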

[1] = measured here: lipid fluorescence (Fed channel) AC50, cells fed with added oleic acid
[2] = measured here: cell number channel AC50, cells fed with added oleic acid

CCOC(=O)c1c(C)[nH]c(C(=O)N(C)CC(=O)Nc2ccc(OC)cc2)c1C
cell number change: -11.5%
AC50 [1]: 0.13 µM [falling, full curve, poor fit]

CC1(C)SC2c3ccccc3C(=O)N2[C@@H]1C(=O)NCc1ccco1 (stereo partly drawn)
cell number change: 11.2%
AC50 [1]: 0.116 µM [rising, partial curve, poor fit]

O=C(COC(=O)CNC(=O)c1ccc(Cl)cc1)Nc1cccc(S(=O)(=O)N2CCCC2)c1
cell number change: 7.85%
AC50 [1]: 6.51 µM [rising, single point]

Clc1ccc(-c2nnc(SCc3nc4ccccc4s3)o2)cc1
cell number change: 9.63%
AC50 [1]: 0.00731 µM [rising, full curve, poor fit]

COc1cc(NC(=O)c2cnc(NCc3ccccc3)nc2C)cc(OC)c1OC
cell number change: 72.5%
AC50 [2]: 14.6 µM [rising, partial curve]
AC50 [1]: 1.46 µM [rising, full curve]

O=C(Cc1ccccc1F)N1CCN(S(=O)(=O)c2ccc(Cl)cc2)CC1
cell number change: 1.38%
AC50 [1]: 6.51 µM [rising, single point]

CCOC(=O)Cc1csc(SCc2cc(=O)oc3cc(O)ccc23)n1
cell number change: 5.05%

Cc1cc(C)nc(SCCn2c(N(C)Cc3ccccc3)nc3c2c(=O)n(C)c(=O)n3C)n1
cell number change: -6.79%
AC50 [1]: 6.51 µM [falling, partial curve]

CN(CC(=O)Nc1ccccc1Cl)C(=O)c1cc(=O)[nH]c2ccccc12
cell number change: -16%

COc1ccc(CCNC(=O)C2(c3ccccc3)CC2)cc1
cell number change: 37.2%
AC50 [2]: 29.1 µM [rising, single point]
AC50 [1]: 1.84 µM [rising, partial curve]

N#Cc1cc2c(nc1SCc1cccnc1)CCCC2
cell number change: -23.6%

CC(C)(C)C(=O)NC1CCN(S(=O)(=O)c2cccc(C(F)(F)F)c2)CC1
cell number change: -11%

CCOc1ccc(/C=N/OCC(=O)Nc2ccc(OCc3ccccc3)cc2)cc1OC
cell number change: -10.7%
AC50 [1]: 0.58 µM [rising, full curve]

c1ccc(-c2noc(-c3ccccc3-c3ccccc3)n2)cc1
cell number change: 3.31%
AC50 [2]: 0.259 µM [rising, full curve]
AC50 [1]: 0.651 µM [rising, partial curve]

CN(C)S(=O)(=O)c1cccc(NC(=O)COC(=O)c2cc(-c3cccc(Br)c3)nc3ccccc23)c1
AC50 [2]: 1.64 µM [rising, partial curve]

CC(C)c1ccc(C(C)NC(=S)NC2CCCCC2)cc1 (stereo not drawn)
cell number change: 25.2%
AC50 [1]: 0.461 µM [falling, single point]

Cc1cccc(NC(=O)CCc2ccc(C)o2)c1
cell number change: -7.15%
AC50 [1]: 32.6 µM [falling, partial curve, poor fit]

O=C1C2C3c4ccccc4C(c4ccccc43)C2C(=O)N1Cc1ccco1 (stereo not drawn)
cell number change: -10.9%
AC50 [1]: 0.411 µM [rising, partial curve, poor fit]

CC(C)C(=O)NC(=S)Nc1ccc(S(=O)(=O)N2CCN(C)CC2)cc1
cell number change: -33.3%
AC50 [2]: 29.1 µM [falling, single point]

O=C(Nc1cccc([N+](=O)[O-])c1)NC1CCCCCCC1
cell number change: 5.78%
AC50 [1]: 6.51 µM [falling, partial curve, poor fit]

CCOc1cc2c(cc1OCC)C(c1ccccc1)N(c1ccccc1)C(=O)C2 (stereo not drawn)
cell number change: 5.08%
AC50 [1]: 7.31 µM [rising, partial curve, poor fit]

Cc1noc(C)c1S(=O)(=O)N1CCCC1C(=O)NC(C)(C)C (stereo not drawn)
cell number change: -11.2%

CCOC(=O)c1sc(-c2ccccn2)nc1C
cell number change: 48.5%
AC50 [2]: 1.64 µM [rising, partial curve, poor fit]
AC50 [1]: 5.8 µM [falling, single point]

CCOc1ccc(S(=O)(=O)N2CCN(c3ccc(C)cc3C)CC2)cc1
cell number change: 35.3%
AC50 [2]: 29.1 µM [rising, partial curve]

O=C(Nc1ccccn1)c1ccc(Cl)s1
cell number change: 40%
AC50 [1]: 0.316 µM [rising, full curve, poor fit]

COc1ccc(NC(=O)C2=C(C)NC(=O)NC2c2cccc(OC)c2OC)c(OC)c1 (stereo not drawn)
cell number change: 106%
AC50 [2]: 2.59 µM [rising, full curve]
AC50 [1]: 2.06 µM [rising, full curve]

COc1ccc(C2=NCCn3nc4ccccc4c32)cc1
cell number change: 14.3%
AC50 [1]: 0.58 µM [rising, single point]

CCOc1ncccc1C(=O)N1CCN(c2cccc(C)c2C)CC1
cell number change: -19.9%
AC50 [2]: 4.11 µM [falling, single point]
AC50 [1]: 1.64 µM [falling, partial curve]

O=C(N/N=C/c1cccc(O)c1)c1cc(-c2ccccc2)nc2ccccc12
cell number change: 25.7%
AC50 [1]: 0.366 µM [falling, full curve]

COc1ccc(-n2nc(C(=O)NCC(=O)N3CCN(c4cccc(Cl)c4)CC3)c3ccccc3c2=O)c(OC)c1
cell number change: 20.3%
AC50 [1]: 29.1 µM [rising, single point]

COc1ccc2cc3cc(C(=O)NCCCN4CCC(C)CC4)oc3nc2c1
cell number change: 56.9%
AC50 [2]: 29.1 µM [rising, single point]

CCOC(=O)c1ccc(NC(=S)NCCc2ccccc2F)cc1
cell number change: 2.43%

c1ccc(-n2cnc3cc(NCc4ccncc4)ccc32)cc1
AC50 [1]: 0.092 µM [rising, full curve, poor fit]

O=C(NC1=NCCS1)C12CC3CC(C1)CC(C(=O)NC1=NCCS1)(C3)C2
AC50 [2]: 2.06 µM [falling, partial curve]
AC50 [1]: 0.58 µM [falling, single point]

C/C(N)=C(/C#N)C(=O)COC(=O)c1ccccc1Oc1ccccc1
cell number change: 18%
AC50 [2]: 0.0517 µM [rising, full curve, poor fit]
AC50 [1]: 0.00461 µM [rising, full curve, poor fit]

CCOc1ccc(N2CC(O)=C(c3ccccc3)C2=N)cc1
cell number change: -5.46%
AC50 [2]: 6.51 µM [rising, single point]

Cc1ccc(C(=O)Cn2c(NCCO)nc3ccccc32)cc1
cell number change: 2.37%
AC50 [1]: 2.91 µM [rising, single point]

O=C(NCc1ccco1)c1cc2sccc2n1Cc1ccccc1
cell number change: -53.6%
AC50 [2]: 18.4 µM [falling, partial curve]
AC50 [1]: 8.2 µM [falling, partial curve]

CC(Oc1ccc2ccc(=O)oc2c1)C(=O)NCCN1CCOCC1 (stereo not drawn)
cell number change: 16.4%
AC50 [1]: 29.1 µM [rising, single point]

O=C(O)c1cc(C(=O)O)cc(-c2ccc(/C=c3/sc4nc5ccccc5n4c3=O)o2)c1
cell number change: 9.34%
AC50 [1]: 0.164 µM [falling, full curve, poor fit]

Cc1ccccc1/C=C1\CCCc2ccccc2C1=O
cell number change: -24.6%
AC50 [1]: 29.1 µM [falling, single point]

N=c1c2c(-c3ccccc3)c(-c3ccccc3)n(Cc3ccco3)c2ncn1CCN1CCOCC1
cell number change: 1.24%
AC50 [2]: 0.517 µM [falling, full curve]
AC50 [1]: 9.2 µM [falling, partial curve, poor fit]

O=c1[nH]c(N/N=C\c2ccc3c(c2)OCO3)nc2ccccc12
cell number change: -45.2%
AC50 [1]: 29.1 µM [falling, single point]

COc1cccc2sc3ccc(C#Cc4ccc(N)cc4)cc3c(=O)c12
cell number change: -47.3%
AC50 [2]: 32.6 µM [falling, single point]
AC50 [1]: 0.231 µM [falling, full curve, poor fit]

Oc1ccc(C(=S)N2CCCC2)cc1
cell number change: -6.87%

Nc1nc(-c2ccccc2)c(N=Nc2ccc(Cl)cc2)s1
cell number change: -79.3%
AC50 [2]: 29.1 µM [falling, single point]
AC50 [1]: 10.3 µM [falling, partial curve]

Cc1ccc(-c2nc(CS(=O)CC(=O)NC3CC3)c(C)o2)cc1 (stereo not drawn)
cell number change: -12.7%
AC50 [1]: 0.231 µM [rising, full curve, poor fit]

COc1ccc(Nc2c(-c3ccc(OC)cc3)nc3cnccn23)cc1
cell number change: 0.814%
AC50 [2]: 6.51 µM [rising, single point]
AC50 [1]: 3.26 µM [rising, single point]

COc1cc(C)ccc1OCC(=O)NC1CCCCCC1
cell number change: -1.65%
AC50 [1]: 0.092 µM [rising, full curve, poor fit]

CCOC1(/N=C(\C)NS(=O)(=O)c2ccc(Cl)cc2)C(C)=CC(=O)C=C1C
cell number change: -7.65%

COC(=O)Cn1c(=NC(=O)c2ccc([N+](=O)[O-])s2)sc2cc(Br)ccc21
AC50 [2]: 29.1 µM [rising, single point]

CN=C(Nc1cc(C)nn1-c1ccccc1)c1ccc(F)cc1
cell number change: 2.88%

CC(=O)Nc1ccc(S(=O)(=O)NC(CC(=O)O)c2ccc(C)cc2)cc1 (stereo not drawn)
cell number change: -25.4%
AC50 [1]: 4.61 µM [falling, partial curve]

COc1cc2ccccc2cc1C(=O)OCC(=O)N1CCOCC1
cell number change: -18.4%
AC50 [1]: 4.61 µM [falling, partial curve, poor fit]

O=C(c1ccc(F)cc1)N1CCCC(C(=O)N2CCCCC2)C1 (stereo not drawn)
cell number change: -5.9%
AC50 [1]: 13 µM [rising, partial curve]

COc1ccc(CNC(=O)c2nnn(Cc3ccc(OC)cc3)c2N)cc1
cell number change: -31.1%
AC50 [2]: 9.2 µM [falling, partial curve, poor fit]

CC1CCCC(C)N1CCCNC(=O)c1csc2c1CCCCC2 (stereo not drawn)
cell number change: 32.4%
AC50 [2]: 0.184 µM [rising, full curve, poor fit]

Cc1ccc(-c2nc3ccccc3c(=O)n2NC(=S)N(C)C)cc1
cell number change: 12.7%
AC50 [1]: 0.58 µM [rising, full curve, poor fit]

Cc1cc(=O)oc2c(C(=O)/C=C/c3ccccc3)c(O)ccc12
cell number change: 21.2%
AC50 [1]: 6.51 µM [rising, partial curve, poor fit]
